The results in this text go back to publication PMC9095593, “On Methods for the Measurement of the Apelin Receptor Ligand Apelin” (Scientific Reports, 2022).

The series in a line: Spiking recovery of sample preparation (magnetic beads) from K2EDTA plasma. More on the design: species or system human. As to conditions: HPLC-MS/MS area, n = 6.

As to “Apelin-36: synthetic apelin isoform of 36 amino acids, purchased from CPC Scientific / Phoenix Pharmaceuticals (LVQPRGSRNGPGPWQGGRRKFRRQRPRLSHKGPMPF; Apelin-36; UniProt Q9ULZ1 42-77, looked up)”, the “Recovery % (area) Mean ± stdev, Plasma pH2.5” value (K2EDTA plasma stored at pH 2.5, fixed concentration added before magnetic beads vs into the eluent) is reported as 75.02 ± 7.46%. For the same substance, the “Recovery % (area) Mean ± stdev, Plasma pH 4.5” value (K2EDTA plasma stored at pH 4.5, fixed concentration added before magnetic beads vs into the eluent) came out at 83.15 ± 11.87%. The “Recovery % (area) Mean ± stdev, Plasma” value (K2EDTA plasma without acidification, fixed concentration added before magnetic beads vs into the eluent) is given as 83.34 ± 3.66%.
